Assay results as given in PMC7575592.
These are yes or no findings as the source states them, for the method shown. In cells and extracts the contact can be indirect. Some entries that bind do so weakly or less than the wild type.

Sequences of proteins named here, by UniProt entry; tags and fusion partners are left off.
UniProt Q13936: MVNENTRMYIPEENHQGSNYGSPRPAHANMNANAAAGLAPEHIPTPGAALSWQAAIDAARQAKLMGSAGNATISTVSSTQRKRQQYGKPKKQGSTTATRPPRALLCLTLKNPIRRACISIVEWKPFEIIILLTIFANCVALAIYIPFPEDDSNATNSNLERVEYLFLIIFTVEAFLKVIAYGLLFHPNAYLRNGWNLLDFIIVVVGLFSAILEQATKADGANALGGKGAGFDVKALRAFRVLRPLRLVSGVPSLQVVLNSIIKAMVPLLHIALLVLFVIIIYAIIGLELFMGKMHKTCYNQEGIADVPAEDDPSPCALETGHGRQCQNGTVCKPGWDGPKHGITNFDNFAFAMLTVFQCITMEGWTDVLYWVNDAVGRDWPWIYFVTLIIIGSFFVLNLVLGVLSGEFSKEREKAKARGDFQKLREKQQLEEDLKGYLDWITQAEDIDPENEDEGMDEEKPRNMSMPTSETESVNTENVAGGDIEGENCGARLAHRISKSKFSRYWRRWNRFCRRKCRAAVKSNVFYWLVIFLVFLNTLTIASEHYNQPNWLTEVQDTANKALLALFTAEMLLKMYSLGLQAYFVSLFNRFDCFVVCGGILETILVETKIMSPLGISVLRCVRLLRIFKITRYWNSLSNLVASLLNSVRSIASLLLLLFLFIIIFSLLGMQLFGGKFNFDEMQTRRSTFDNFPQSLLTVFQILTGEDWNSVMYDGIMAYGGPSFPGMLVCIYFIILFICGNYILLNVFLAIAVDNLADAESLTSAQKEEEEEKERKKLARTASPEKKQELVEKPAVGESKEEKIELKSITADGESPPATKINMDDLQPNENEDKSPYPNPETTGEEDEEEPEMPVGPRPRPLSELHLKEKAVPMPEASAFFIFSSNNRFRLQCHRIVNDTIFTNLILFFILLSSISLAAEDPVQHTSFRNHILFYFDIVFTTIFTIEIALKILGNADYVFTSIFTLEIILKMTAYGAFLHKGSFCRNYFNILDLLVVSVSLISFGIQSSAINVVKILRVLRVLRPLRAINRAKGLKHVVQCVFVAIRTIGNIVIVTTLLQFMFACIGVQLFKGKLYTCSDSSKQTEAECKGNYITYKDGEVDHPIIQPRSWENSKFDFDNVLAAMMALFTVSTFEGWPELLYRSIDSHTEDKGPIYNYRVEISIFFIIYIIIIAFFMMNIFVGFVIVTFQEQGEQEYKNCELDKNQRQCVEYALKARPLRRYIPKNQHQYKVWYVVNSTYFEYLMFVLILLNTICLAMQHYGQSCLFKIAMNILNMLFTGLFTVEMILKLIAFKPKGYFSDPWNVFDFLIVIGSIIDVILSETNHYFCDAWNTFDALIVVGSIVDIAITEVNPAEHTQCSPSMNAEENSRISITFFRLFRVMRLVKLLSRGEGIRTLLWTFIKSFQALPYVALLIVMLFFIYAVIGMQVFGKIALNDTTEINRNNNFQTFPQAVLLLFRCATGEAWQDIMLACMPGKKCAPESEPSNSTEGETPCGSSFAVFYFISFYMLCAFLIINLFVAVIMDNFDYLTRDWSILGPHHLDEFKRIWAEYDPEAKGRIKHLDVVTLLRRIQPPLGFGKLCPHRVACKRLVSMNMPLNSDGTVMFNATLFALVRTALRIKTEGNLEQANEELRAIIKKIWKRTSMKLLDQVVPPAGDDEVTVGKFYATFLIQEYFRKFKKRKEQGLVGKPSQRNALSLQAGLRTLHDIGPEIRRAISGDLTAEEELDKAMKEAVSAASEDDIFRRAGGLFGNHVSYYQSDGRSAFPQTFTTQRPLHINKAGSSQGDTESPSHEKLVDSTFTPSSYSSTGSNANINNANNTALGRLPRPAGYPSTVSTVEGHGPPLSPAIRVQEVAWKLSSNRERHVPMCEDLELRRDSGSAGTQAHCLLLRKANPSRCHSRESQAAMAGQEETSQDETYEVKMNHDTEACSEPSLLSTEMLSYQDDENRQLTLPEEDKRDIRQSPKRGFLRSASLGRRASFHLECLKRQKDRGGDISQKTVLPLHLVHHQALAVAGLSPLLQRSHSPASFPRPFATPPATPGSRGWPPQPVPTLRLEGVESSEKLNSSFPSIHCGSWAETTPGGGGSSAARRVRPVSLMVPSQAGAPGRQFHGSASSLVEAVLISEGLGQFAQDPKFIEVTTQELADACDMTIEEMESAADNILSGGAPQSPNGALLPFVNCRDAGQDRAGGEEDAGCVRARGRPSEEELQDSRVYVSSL
UniProt P24588: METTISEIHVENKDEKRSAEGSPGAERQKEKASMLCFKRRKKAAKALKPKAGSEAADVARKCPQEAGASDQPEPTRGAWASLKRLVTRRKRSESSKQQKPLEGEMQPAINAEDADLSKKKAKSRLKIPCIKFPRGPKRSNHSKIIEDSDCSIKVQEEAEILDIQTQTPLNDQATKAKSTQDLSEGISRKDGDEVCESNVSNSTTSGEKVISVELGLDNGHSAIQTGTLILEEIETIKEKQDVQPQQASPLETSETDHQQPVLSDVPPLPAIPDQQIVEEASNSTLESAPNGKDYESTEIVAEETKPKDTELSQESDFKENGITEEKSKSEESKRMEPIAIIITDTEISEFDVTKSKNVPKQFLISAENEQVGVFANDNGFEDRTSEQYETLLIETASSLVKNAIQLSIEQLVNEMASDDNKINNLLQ
UniProt Q01815: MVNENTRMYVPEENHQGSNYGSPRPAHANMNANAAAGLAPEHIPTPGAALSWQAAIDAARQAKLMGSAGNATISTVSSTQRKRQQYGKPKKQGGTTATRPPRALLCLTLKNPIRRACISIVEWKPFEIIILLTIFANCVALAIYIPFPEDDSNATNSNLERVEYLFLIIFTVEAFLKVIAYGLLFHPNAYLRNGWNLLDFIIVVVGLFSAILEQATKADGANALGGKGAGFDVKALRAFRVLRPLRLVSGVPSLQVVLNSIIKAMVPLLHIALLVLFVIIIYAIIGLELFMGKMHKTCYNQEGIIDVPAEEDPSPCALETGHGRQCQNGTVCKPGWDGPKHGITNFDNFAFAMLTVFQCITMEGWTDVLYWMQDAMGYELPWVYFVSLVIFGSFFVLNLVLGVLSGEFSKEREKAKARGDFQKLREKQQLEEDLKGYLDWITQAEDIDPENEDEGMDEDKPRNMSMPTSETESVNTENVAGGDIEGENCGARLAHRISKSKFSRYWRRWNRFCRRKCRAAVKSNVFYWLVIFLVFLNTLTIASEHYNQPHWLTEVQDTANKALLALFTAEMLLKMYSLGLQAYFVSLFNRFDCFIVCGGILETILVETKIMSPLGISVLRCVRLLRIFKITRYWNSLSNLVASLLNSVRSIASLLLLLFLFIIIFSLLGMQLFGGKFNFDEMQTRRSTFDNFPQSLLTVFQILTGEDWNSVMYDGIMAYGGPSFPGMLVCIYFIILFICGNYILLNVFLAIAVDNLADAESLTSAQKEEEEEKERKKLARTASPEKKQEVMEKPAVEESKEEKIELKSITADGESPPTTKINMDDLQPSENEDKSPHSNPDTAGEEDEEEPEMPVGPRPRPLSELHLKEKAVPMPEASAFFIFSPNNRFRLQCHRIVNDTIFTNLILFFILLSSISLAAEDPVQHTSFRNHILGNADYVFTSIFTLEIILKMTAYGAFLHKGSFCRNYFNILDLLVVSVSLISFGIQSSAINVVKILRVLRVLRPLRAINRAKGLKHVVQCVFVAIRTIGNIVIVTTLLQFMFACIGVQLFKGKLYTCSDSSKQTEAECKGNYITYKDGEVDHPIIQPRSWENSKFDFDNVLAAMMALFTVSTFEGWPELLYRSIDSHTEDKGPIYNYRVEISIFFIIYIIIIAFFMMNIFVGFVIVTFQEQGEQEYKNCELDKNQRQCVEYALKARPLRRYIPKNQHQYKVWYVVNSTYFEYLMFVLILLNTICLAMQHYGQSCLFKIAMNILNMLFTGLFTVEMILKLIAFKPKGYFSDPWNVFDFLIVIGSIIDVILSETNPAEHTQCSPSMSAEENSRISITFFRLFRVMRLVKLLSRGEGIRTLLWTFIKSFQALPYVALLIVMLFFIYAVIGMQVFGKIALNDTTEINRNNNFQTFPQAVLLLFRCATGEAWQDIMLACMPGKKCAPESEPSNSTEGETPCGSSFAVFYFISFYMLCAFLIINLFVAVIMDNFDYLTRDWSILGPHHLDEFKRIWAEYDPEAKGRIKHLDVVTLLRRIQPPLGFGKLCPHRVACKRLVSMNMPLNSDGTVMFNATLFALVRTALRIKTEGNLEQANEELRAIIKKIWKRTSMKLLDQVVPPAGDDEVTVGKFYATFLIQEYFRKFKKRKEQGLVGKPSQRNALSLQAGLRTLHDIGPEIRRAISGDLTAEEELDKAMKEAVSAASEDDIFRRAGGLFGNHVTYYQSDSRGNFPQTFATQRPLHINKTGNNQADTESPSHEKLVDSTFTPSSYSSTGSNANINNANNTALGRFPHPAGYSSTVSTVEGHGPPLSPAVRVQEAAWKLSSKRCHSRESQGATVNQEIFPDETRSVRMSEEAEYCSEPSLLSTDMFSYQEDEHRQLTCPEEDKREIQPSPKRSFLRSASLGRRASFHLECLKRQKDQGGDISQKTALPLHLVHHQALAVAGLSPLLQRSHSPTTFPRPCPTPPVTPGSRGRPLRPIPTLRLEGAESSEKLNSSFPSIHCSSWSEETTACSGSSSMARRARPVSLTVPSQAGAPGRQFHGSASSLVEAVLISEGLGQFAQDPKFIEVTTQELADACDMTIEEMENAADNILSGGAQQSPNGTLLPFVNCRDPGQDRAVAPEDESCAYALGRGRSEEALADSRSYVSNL
UniProt P84309: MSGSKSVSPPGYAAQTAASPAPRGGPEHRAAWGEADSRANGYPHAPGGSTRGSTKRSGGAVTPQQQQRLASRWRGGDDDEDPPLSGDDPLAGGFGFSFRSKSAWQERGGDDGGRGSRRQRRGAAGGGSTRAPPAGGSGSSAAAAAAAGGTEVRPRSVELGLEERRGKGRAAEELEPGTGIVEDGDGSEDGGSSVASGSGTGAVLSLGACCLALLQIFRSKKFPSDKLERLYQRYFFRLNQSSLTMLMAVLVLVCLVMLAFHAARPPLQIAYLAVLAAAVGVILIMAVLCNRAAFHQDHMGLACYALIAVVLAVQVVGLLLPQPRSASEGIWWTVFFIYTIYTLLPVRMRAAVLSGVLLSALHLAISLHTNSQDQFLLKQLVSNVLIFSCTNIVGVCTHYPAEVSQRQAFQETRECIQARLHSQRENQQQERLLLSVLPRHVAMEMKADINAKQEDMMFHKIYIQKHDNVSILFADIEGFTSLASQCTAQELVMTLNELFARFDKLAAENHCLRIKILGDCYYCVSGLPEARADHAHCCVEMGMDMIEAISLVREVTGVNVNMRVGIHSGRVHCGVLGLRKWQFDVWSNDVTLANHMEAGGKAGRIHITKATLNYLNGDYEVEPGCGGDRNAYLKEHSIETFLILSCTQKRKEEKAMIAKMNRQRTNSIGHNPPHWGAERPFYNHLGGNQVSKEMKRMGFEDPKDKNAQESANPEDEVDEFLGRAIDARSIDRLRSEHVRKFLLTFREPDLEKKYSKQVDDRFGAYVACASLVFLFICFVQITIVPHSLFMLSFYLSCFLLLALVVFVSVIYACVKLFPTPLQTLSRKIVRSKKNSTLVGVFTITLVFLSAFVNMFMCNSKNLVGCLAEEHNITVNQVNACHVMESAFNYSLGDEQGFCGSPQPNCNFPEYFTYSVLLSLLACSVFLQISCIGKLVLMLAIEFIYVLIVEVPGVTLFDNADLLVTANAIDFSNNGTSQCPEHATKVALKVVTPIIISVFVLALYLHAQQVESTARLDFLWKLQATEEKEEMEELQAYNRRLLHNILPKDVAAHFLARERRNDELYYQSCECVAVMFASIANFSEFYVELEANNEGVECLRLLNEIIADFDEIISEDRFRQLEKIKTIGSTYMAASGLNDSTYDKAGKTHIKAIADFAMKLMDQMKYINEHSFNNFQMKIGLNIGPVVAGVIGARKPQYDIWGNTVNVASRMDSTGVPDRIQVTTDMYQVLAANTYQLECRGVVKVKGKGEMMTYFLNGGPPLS

Columns and labels:
[1] = molecular target: T1, P2Y11 receptor, human (human (endogenous in adipose arterial myocytes)) (UniProt Q96G91); test: proximity ligation; Duolink in situ PLA on freshly dissociated human male and female adipose arterial myocytes, fixed with 3% glyoxal and permeabilised; two primary antibodies; signal when proteins are within 40 nm; puncta per cell area
T1 sequence: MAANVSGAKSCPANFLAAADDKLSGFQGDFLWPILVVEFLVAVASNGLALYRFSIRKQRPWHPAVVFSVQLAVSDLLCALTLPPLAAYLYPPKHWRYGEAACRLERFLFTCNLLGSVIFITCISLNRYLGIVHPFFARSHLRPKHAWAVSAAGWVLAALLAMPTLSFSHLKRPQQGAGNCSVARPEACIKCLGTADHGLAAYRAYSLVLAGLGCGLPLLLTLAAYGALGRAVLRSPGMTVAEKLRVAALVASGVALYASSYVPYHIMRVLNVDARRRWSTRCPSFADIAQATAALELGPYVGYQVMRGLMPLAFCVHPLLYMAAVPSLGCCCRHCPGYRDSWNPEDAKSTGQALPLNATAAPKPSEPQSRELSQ

[2] = molecular target: L-type Ca2+ channel CaV1.2, human (human (endogenous in adipose arterial myocytes)) (UniProt Q13936); test: as above
[3] = molecular target: adenylyl cyclase 5 (AC5), human (human (endogenous in adipose arterial myocytes)) (UniProt O95622); test: as above
[4] = molecular target: T2, A-kinase anchoring protein 5 (AKAP5), mouse (mouse (endogenous in cerebral arterial myocytes)) (UniProt D3YVF0); test: proximity ligation; Duolink in situ PLA on freshly dissociated cerebral arterial myocytes of wild-type and AKAP5-/- mice, fixed with 3% glyoxal and permeabilised; two primary antibodies; signal when proteins are within 40 nm; puncta per cell area
T2 sequence: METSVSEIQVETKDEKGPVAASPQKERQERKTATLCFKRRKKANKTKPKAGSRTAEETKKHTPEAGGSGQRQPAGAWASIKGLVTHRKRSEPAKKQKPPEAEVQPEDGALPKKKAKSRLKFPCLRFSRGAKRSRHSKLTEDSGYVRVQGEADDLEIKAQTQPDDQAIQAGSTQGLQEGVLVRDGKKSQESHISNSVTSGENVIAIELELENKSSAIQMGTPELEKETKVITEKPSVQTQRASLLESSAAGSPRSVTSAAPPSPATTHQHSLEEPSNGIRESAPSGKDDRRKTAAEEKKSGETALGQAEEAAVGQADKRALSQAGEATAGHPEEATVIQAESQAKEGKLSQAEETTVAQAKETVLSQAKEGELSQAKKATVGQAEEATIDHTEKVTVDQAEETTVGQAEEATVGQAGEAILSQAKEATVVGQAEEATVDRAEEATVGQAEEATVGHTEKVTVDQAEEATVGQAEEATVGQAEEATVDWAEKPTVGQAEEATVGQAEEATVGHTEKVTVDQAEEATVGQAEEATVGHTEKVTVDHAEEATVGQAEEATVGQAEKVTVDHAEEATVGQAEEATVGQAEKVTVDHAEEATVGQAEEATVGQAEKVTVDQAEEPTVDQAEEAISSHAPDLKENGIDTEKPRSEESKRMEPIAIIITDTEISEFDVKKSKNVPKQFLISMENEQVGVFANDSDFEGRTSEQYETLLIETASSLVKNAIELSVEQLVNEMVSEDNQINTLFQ

Substance	binding [1]	binding [2]	binding [3]	binding [4]
A-kinase anchoring protein 5 (AKAP5), human (from UniProt P24588 1-427)	binds	binds	binds	–
L-type Ca2+ channel CaV1.2, mouse (from UniProt Q01815 1-2139)	–	–	–	binds
adenylyl cyclase 5 (AC5), mouse (from UniProt P84309 1-1262) (enzyme)	–	–	–	binds
